Our source for the binding values is article PMC6513524, “Production and characterization of novel ssRNA bacteriophage virus-like particles from metagenomic sequencing data” (Journal of Nanobiotechnology, 2019).

This assay concerns the target PRR1 coat protein (bacteriophage PRR1) (UniProt P03616). Nature of the assay: SEC + other: negative-stain electron microscopy; crude E. coli lysate separated by gel filtration (Sepharose 4 FF, PBS); fractions in the size range of VLPs stained with 1% uranyl acetate and examined by TEM; self-assembly of the coat protein into virus-like particles. (In gel filtration, larger molecules generally elute earlier.)

These are yes or no findings as the source states them, for the method shown. Some binding calls cover weakened binding; strength is not graded here.

B1: PRR1 coat protein (protein, UniProt P03616 1-131)
chain: AQLQNLVLKDREATPNDHTFVPRDIRDNVGEVVESTGVPIGESRFTISLRKTSNGRYKSTLKLVVPVVQSQTVNGIVTPVVVRTSYVTVDFDYDARSTTKERNNFVGMIADALKADLMLVHDTIVNLQGVY
For the molecule B1, the binding result is “binds”.
